In article PMC4824898:
Results are given in words; binding and its absence hold for the method and conditions named. For some assays here: Where a sequence is shown, tags or fusion partners need not be part of it. Values belong to the binder of their own block, whether it stands above or below them.

How the values were obtained:
[1] = target: calcium-binding domain (EF) of S. pombe α-actinin (Schizosaccharomyces pombe) (UniProt O13728); assay: SEC; gel filtration on Superdex 200 10/300GL in 50 mM Tris-HCl, pH 7.6, 200 mM KCl (also Sephacryl S-400HR in 25 mM sodium phosphate, pH 7.6, 150 mM NaCl); elution compared with reference proteins; dimer formation judged from apparent size; both purified
[2] = target: calcium-binding domain of S. pombe α-actinin with C-terminal 6xHis-tag (EF-his) (Schizosaccharomyces pombe) (UniProt O13728); assay: as above

binding [1]: no binding
B1: calcium-binding domain (EF) of S. pombe α-actinin (domain or fragment, UniProt O13728 477-621)
chain: EKRTLSKQELDGITKVFRHFEKKKSNMLNEVEFYAALASLGLVYDTEEGTALFHRAANSEEGVTYERFTEIVMEELEDRDSARQVLYAFCDVADGKSYVTSDDLLRSQVRPNIVKFLECNMNKHSEGLDYLTWIKQLLAEDKEIV

binding [2]: no binding
B2: calcium-binding domain of S. pombe α-actinin with C-terminal 6xHis-tag (EF-his) (domain or fragment, UniProt O13728 477-621)
chain: B1 chain
